Test results taken from PubChem BioAssay AID2685 (National Center for Advancing Translational Sciences (NCATS), 2010).
Some of the results follow. Shown are side measurements of this screen, not its main read-out; they come without a call. The list favours compounds with an active or inconclusive main result. Potencies come from curve fits of mixed quality, noted in brackets.

Experiment: qHTS Assay for Lipid Storage Modulators in Drosophila S3 Cells;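 on cell number change: cells counted by Cell Tracker Red CMTPX staining in the red channel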
Conditions: BODIPY lipid droplet fluorescence, 18-24 h; for cell number change: measured here: cell count max response, cells fed with added oleic acid
In short: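 Laser-scanning cytometry quantifies lipid droplet accumulation (500–530 nm total intensity; droplet/cell object ratio) in oleic acid-fed (400 uM added) Drosophila S3 cells treated with a concentration series. 20 uM Triacsin C defined 100% inhibition.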

[1] = measured here: cell number channel AC50, cells fed with added oleic acid
[2] = measured here: lipid fluorescence (Fed channel) AC50, cells fed with added oleic acid

| Compound | cell number change [%] | AC50 [1] | AC50 [2] |
| --- | --- | --- | --- |
| O=C(NC(=S)Nc1cccnc1)c1ccccc1 | 38.1 | 29.1 µM [rising, single point] |  |
| NCc1ccccc1COc1ccccc1 | 0.877 |  | 0.92 µM [rising, full curve, poor fit] |
| COc1cc(OC)cc(C(=O)NCC(=O)Nc2ccc(OC)c(Cl)c2)c1 | 6.94 |  |  |
| C/C(=C1/SC(N2CC(C)OC(C)C2)=NC1=O)c1ccccc1 (centres undefined) | 54.9 | 9.2 µM [rising, partial curve, poor fit] | 6.51 µM [rising, partial curve] |
| CCN(CC(=O)Nc1c(F)cccc1F)C(=O)/C=C/c1ccc2c(c1)OCO2 | 0.17 | 6.51 µM [falling, single point] |  |
| COc1ccc(NC(=O)c2ccc3c(c2)OCO3)cc1Cl | -10 |  | 14.6 µM [falling, partial curve, poor fit] |
| O=C(C1Cc2ccccc2O1)N1CCCCC1 (centres undefined) | -2.79 |  | 0.116 µM [falling, full curve, poor fit] |
| COc1ccc(N(C(=O)c2ccco2)C(C(=O)NC2CCCC2)c2cccs2)cc1 (centres undefined) | -7.28 |  | 0.651 µM [falling, full curve] |
| CCOC(=O)CSCC(=O)N1CCC(Cc2ccccc2)CC1 | 10.1 |  | 6.51 µM [rising, single point] |
| O=C1C2CCCN2C(c2ccccc2)N1c1cccc(Cl)c1 (centres undefined) | 34.4 | 29.1 µM [rising, single point] | 32.6 µM [rising, single point] |
| O=C(NN1C(=O)C2C3C=CC(C4CC34)C2C1=O)c1ccc(Cl)cc1 (centres undefined) | 6.99 |  | 29.1 µM [rising, single point] |
| COCCCNC(=O)c1cc(C(=O)c2c(-c3c(Cl)cccc3Cl)noc2C)c[nH]1 | -2.33 |  |  |
| COC(=O)c1ccccc1NC(=O)CN(CCc1ccccc1)S(C)(=O)=O | 109 | 25.9 µM [rising, single point] | 20.6 µM [rising, partial curve] |
| O=C(CC(Nc1ccc(Cl)cc1)C(=O)O)c1ccccc1 (centres undefined) |  |  | 23.1 µM [falling, single point] |
| O=C(Cc1ccccc1)NC(Nc1cccc2ccccc12)C(Cl)(Cl)Cl (centres undefined) | 43.5 |  | 0.58 µM [rising, single point] |
| Cc1cc(C(=O)NNS(=O)(=O)c2ccccc2C(F)(F)F)nn1C(C)(C)C | 11 |  | 0.517 µM [falling, single point] |
| Fc1ccc(-c2ccc(CNCc3ccccn3)o2)cc1 | 12.3 | 0.058 µM [rising, full curve, poor fit] |  |
| CCOc1ccc(-n2nc3ccc(NC(=O)c4ccc5c(c4)OCCO5)cc3n2)cc1 | -82.3 | 6.51 µM [falling, partial curve] | 6.51 µM [falling, partial curve] |
| COc1cccc(-n2c(COc3ccccc3C)nnc2SCC(=O)O)c1 | 0.105 |  | 1.3 µM [falling, full curve, poor fit] |
| CC(C)N1C(=O)c2ccccc2C1C(=O)NC1CCCCCC1 (centres undefined) | -19.5 |  | 16.4 µM [falling, single point] |
| CCOc1ccc(/C=N/NC(=O)CC(=O)Nc2ccc(Cl)c(Cl)c2)cc1 | -45.1 | 0.206 µM [falling, full curve, poor fit] | 0.58 µM [falling, partial curve] |
| Cc1ccc(NC(=O)c2ccc(OC(F)F)cc2)cc1S(=O)(=O)N(C)C | 16.7 | 0.651 µM [rising, partial curve, poor fit] | 2.59 µM [rising, single point] |
| CCOC(=O)C1=C(c2ccccc2)Nc2ncnn2C1c1cc(OC)cc(OC)c1OC (centres undefined) | 11.2 |  | 1.64 µM [rising, partial curve] |
| COC(=O)c1c(NC(=O)CSc2nc3nc(C)cc(C)n3n2)sc(C)c1C | 33.3 | 20.6 µM [rising, single point] | 4.61 µM [rising, partial curve] |
| CCCCNC(=O)c1ccc(CS(=O)(=O)c2ccc(OC)cc2)o1 | 4.83 |  | 0.0517 µM [rising, full curve, poor fit] |
| CN=C1SC(C(=O)Nc2ccccc2Cl)CC(=O)N1c1ccc(OC(F)(F)Cl)cc1 (centres undefined) | 1.55 |  |  |
| COc1ccccc1C(=O)NNC(=O)c1ccccc1[N+](=O)[O-] | 8.5 |  | 1.84 µM [rising, full curve, poor fit] |
| CCC1(C)OCC(Cn2c3ccccc3c3ccccc32)O1 (centres undefined) | -26.9 |  | 20.6 µM [falling, single point] |

Three entries from above, ordered by count of non-hydrogen atoms, low to high:

| Compound | cell number change [%] | AC50 [1] | AC50 [2] |
| --- | --- | --- | --- |
| O=C(CC(Nc1ccc(Cl)cc1)C(=O)O)c1ccccc1 (centres undefined) |  |  | 23.1 µM [falling, single point] |
| O=C1C2CCCN2C(c2ccccc2)N1c1cccc(Cl)c1 (centres undefined) | 34.4 | 29.1 µM [rising, single point] | 32.6 µM [rising, single point] |
| CCOc1ccc(-n2nc3ccc(NC(=O)c4ccc5c(c4)OCCO5)cc3n2)cc1 | -82.3 | 6.51 µM [falling, partial curve] | 6.51 µM [falling, partial curve] |
